Target: T1, creatine kinase B (CK-B) (Mus musculus, UniProt Q04447)
T1 construct: gene Ckb
Assay: biochemical

Amino acid sequences for entries named in this document (tags omitted). A change or cut given only in a name is not applied to a line headed by its entry.
UniProt Q04447: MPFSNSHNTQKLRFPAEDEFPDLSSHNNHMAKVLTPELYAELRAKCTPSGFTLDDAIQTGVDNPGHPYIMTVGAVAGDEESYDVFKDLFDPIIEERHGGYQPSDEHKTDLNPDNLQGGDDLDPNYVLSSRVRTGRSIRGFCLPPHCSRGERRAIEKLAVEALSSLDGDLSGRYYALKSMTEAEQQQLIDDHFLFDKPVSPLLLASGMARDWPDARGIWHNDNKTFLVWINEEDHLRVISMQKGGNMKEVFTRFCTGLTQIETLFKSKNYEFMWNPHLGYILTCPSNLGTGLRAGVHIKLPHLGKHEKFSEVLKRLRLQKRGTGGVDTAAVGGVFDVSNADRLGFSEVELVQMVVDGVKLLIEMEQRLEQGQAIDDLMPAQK

**Q.** `CN1CC[C@]23c4c5ccc(O)c4O[C@H]2[C@@H](O)C=C[C@H]3[C@H]1C5` [morphine] was tested. Which Kd did it give?
**A.** 10.8 µM

Source: paper PMC6286964, “Morphine Binds Creatine Kinase B and Inhibits Its Activity” (Frontiers in Cellular Neuroscience, 2018)
